Consider 1 substance from article PMC6021376.

Chains of the proteins cited; added tags and fusions are not shown.
UniProt P23804: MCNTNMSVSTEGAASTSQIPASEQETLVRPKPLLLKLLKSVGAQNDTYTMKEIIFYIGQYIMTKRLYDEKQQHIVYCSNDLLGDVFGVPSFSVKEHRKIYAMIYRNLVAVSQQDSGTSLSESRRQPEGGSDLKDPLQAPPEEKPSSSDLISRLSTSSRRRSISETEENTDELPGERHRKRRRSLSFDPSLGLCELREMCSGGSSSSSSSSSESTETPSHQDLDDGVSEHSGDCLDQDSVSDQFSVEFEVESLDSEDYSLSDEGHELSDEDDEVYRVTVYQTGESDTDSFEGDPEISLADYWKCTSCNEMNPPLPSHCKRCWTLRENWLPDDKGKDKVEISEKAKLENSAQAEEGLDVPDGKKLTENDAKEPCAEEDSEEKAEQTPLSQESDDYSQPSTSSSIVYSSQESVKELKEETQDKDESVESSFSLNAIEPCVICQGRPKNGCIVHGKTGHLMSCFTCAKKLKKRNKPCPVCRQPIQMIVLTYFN
UniProt O09106: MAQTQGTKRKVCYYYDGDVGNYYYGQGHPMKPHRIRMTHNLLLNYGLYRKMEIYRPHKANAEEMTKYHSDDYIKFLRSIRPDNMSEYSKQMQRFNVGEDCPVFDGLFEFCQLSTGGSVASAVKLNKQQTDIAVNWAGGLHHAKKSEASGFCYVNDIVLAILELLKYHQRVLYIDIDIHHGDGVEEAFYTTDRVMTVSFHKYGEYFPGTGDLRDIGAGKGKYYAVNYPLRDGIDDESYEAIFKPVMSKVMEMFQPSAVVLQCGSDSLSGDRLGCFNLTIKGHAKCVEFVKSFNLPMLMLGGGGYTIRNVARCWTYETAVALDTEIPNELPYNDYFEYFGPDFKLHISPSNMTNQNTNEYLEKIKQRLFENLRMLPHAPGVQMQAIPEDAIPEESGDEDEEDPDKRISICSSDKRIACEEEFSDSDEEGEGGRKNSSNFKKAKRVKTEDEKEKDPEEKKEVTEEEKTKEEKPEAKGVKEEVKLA

This assay has as its target MDM2 (mouse (endogenous in NPCs from the dentate gyrus)) (UniProt P23804). Kind of assay: co-IP; Pierce Co-IP kit; monoclonal antibody against HDAC1 or MDM2 coupled to AminoLink Plus resin, IgG as negative control; pre-cleared NPC lysate (1 mg protein) in 25 mM Tris, 150 mM NaCl, 1 mM EDTA, 1% NP-40, 5% glycerol, pH 7.4; 4 °C for 2 h; blots probed with anti-MDM2 or anti-HDAC1.

Results are given in words; binding and its absence hold for the method and conditions named. In cells and extracts the contact can be indirect. Some binding calls cover weakened binding; strength is not graded here.

Regarding “histone deacetylase HDAC1 (from UniProt O09106 1-482)”, the binding entry was “binds”.
